Measurements as given in paper PMC5870580.
These are yes or no findings as the source states them, for the method shown. In cells and extracts the contact can be indirect. Some results given as binding are weak or reduced against the parent protein; the word gives no strength. For some of these results: Sequences can lack the tags named with a protein. Blank lines part the entries; values can stand above or below the molecule they belong to.

Protein sequences, listed by entry. Tags and fused reporters are not part of them.
UniProt Q96EB6: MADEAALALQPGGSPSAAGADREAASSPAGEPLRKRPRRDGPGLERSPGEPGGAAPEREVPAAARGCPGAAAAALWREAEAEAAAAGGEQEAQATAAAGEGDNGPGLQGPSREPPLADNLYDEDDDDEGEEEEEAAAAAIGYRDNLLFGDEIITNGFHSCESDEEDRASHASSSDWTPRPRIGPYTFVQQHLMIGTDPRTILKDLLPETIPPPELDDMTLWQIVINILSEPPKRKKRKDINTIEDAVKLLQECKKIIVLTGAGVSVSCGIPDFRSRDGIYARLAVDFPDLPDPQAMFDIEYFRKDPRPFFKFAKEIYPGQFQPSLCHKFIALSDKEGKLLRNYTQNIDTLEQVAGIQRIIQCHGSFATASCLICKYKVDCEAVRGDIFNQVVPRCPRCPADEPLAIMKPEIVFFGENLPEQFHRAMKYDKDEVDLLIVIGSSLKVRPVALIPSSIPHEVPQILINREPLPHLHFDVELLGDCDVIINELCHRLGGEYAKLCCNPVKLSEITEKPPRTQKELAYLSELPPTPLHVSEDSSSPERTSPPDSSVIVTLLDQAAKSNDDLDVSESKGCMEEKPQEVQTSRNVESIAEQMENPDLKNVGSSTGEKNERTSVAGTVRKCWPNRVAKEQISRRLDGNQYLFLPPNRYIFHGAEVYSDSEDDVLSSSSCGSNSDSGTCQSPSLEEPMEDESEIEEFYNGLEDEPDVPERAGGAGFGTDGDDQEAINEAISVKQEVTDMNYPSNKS
UniProt P37231: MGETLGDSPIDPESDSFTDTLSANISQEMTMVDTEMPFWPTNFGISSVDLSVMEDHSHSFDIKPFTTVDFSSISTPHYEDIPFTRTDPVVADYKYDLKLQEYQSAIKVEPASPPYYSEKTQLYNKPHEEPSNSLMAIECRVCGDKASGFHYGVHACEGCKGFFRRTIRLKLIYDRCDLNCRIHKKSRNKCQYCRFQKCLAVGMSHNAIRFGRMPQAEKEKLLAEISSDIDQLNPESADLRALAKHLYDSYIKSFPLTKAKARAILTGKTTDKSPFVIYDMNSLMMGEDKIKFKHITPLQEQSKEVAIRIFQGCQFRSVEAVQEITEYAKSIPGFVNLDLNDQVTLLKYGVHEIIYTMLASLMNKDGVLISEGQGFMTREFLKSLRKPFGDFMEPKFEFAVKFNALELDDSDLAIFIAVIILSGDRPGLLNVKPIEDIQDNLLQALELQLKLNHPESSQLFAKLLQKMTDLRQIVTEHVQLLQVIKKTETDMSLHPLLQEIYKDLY
UniProt P37238: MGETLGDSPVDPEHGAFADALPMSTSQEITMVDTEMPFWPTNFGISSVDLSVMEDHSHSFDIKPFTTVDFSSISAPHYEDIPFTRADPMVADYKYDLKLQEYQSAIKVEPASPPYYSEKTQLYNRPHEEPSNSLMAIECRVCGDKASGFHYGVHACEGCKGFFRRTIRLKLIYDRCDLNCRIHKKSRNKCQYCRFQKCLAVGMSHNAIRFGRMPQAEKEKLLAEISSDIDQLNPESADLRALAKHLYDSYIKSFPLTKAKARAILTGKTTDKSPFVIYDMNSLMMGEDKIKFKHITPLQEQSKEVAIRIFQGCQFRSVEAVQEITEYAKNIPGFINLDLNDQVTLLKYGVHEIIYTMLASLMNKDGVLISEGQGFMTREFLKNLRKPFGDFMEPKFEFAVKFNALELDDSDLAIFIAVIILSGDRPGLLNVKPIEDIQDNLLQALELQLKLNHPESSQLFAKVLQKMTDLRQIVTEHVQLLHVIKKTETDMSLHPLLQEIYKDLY

Key:
[1] = target: T1, GST-CACUL1 (human) (UniProt Q86Y37); assay: pull-down; GST-CACUL1 on glutathione Sepharose beads incubated with in vitro translated Myc-PPARγ in the presence of the PPARγ agonist rosiglitazone; western blot with anti-Myc; only the target purified
T1 sequence: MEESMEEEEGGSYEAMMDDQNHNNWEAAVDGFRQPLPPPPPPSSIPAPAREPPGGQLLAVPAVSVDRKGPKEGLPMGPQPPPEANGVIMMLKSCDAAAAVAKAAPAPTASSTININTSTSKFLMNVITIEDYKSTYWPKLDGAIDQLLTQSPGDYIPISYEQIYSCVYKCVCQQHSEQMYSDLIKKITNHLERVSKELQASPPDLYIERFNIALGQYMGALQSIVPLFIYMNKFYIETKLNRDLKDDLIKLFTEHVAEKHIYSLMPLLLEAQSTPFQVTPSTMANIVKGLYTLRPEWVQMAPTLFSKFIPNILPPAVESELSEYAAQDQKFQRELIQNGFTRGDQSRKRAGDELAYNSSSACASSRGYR

[2] = target: Myc-SIRT1 (UniProt Q96EB6); assay: co-IP; HEK293 cells co-transfected with tagged constructs; lysates incubated overnight at 4 °C with the antibody against the tag (1:200), protein A/G agarose beads, western blot; for GFP-CACUL1 and Myc-PPARγ with and without rosiglitazone
[3] = target: Myc-PPARγ (UniProt P37231); assay: as above
[4] = target: endogenous PPARγ of 3T3-L1 preadipocytes (mouse (endogenous in 3T3-L1)) (UniProt P37238); assay: co-IP; endogenous proteins of 3T3-L1 preadipocytes; IP with anti-PPARγ antibody, western blot with anti-SIRT1 or anti-CACUL1

B1: FLAG-CACUL1 (protein, UniProt Q86Y37 1-369)
chain: MEESMEEEEGGSYEAMMDDQNHNNWEAAVDGFRQPLPPPPPPSSIPAPAREPPGGQLLAVPAVSVDRKGPKEGLPMGPQPPPEANGVIMMLKSCDAAAAVAKAAPAPTASSTININTSTSKFLMNVITIEDYKSTYWPKLDGAIDQLLTQSPGDYIPISYEQIYSCVYKCVCQQHSEQMYSDLIKKITNHLERVSKELQASPPDLYIERFNIALGQYMGALQSIVPLFIYMNKFYIETKLNRDLKDDLIKLFTEHVAEKHIYSLMPLLLEAQSTPFQVTPSTMANIVKGLYTLRPEWVQMAPTLFSKFIPNILPPAVESELSEYAAQDQKFQRELIQNGFTRGDQSRKRAGDELAYNSSSACASSRGYR
- binding [2]: binds

B3: endogenous CACUL1 of 3T3-L1 preadipocytes (protein, UniProt Q8R0X2 1-377)
chain: MEESMEEEEMLTYEAMMDDQNHNNWEAAADSFRQPPPAPPLPPPPPPRPSSSIPDPGRELPGGQLLAVHAGSMERKGPKEGLPMGPPPLPEPNGVIMMLKSCDAAAAVAKTAPAPTSSSTININTSTSKFLMNVITIEDYKSTYWPKLDGAIDQLLTQSPGDYIPISYEQIYSCVYKCVCQQHSEQMYSDLIKKITSHLERVSKELQASPPDLYIERFNIALGQYMGALQSIVPLFIYMNKFYIETKLNRDLKDDLIKLFTEHVAEKHIYSLMPLLLEAQSTPFQVTPSTMANIVKGLYTLRPEWVQMAPTLFSKFIPNILPPAVESELSEYAAQDQKLQRELIQNGFTRGDQSRKRAGDELAYNSPSACASSRGYR
- binding [4]: binds

More lines, now with the values ahead:

- binding [1]: binds
Molecule: in vitro translated Myc-PPARγ (from UniProt P37231 1-505)

- binding [3]: binds
B2: GFP-CACUL1 (protein, UniProt Q86Y37 1-369)
chain: MEESMEEEEGGSYEAMMDDQNHNNWEAAVDGFRQPLPPPPPPSSIPAPAREPPGGQLLAVPAVSVDRKGPKEGLPMGPQPPPEANGVIMMLKSCDAAAAVAKAAPAPTASSTININTSTSKFLMNVITIEDYKSTYWPKLDGAIDQLLTQSPGDYIPISYEQIYSCVYKCVCQQHSEQMYSDLIKKITNHLERVSKELQASPPDLYIERFNIALGQYMGALQSIVPLFIYMNKFYIETKLNRDLKDDLIKLFTEHVAEKHIYSLMPLLLEAQSTPFQVTPSTMANIVKGLYTLRPEWVQMAPTLFSKFIPNILPPAVESELSEYAAQDQKFQRELIQNGFTRGDQSRKRAGDELAYNSSSACASSRGYR
